Experiment [1] addresses Myc-tagged androgen receptor (pCMV-3myc-AR) (UniProt P10275). Description: co-IP; cells co-transfected with AR, TIP60 and increasing amounts of ING3 plasmid + 10 nM MB for 24 h; AR or TIP60 immunoprecipitated with anti-AR or HA-affinity beads.
Experiment [2] deals with HA-tagged ING3 (full-length ING3 expression plasmid) (human) (UniProt Q9NXR8). Description: co-IP; HEK293T co-transfected with AR and HA-tagged ING3 constructs, whole lysate; ING3 constructs precipitated with HA-affinity beads; +/- 10 nM MB; also with ethidium bromide in the IP buffer; blots for AR and endogenous TIP60.
For experiment [3] the target is unchanged. Description: co-IP; nuclear fraction (REAP protocol) of HEK293T transfected with ING3-HA and AR, no MB; HA-bound beads pull down ING3.
The target of experiment [4] is HA-tagged TIP60 (pCIN4-FLAG-HA-TIP60) (UniProt Q92993). Description: co-IP; cells co-transfected with AR, TIP60 and increasing amounts of ING3 plasmid + 10 nM MB for 24 h; AR or TIP60 immunoprecipitated with anti-AR or HA-affinity beads.
The target of experiment [5] is HA-tagged ING3 (full-length ING3 expression plasmid) (human) (UniProt Q9NXR8). Briefly: co-IP; cytosolic fraction (REAP protocol) of HEK293T transfected with ING3-HA and AR, no MB; HA-bound beads pull down ING3.

Chains of the proteins cited; added tags and fusions are not shown.
UniProt P10275: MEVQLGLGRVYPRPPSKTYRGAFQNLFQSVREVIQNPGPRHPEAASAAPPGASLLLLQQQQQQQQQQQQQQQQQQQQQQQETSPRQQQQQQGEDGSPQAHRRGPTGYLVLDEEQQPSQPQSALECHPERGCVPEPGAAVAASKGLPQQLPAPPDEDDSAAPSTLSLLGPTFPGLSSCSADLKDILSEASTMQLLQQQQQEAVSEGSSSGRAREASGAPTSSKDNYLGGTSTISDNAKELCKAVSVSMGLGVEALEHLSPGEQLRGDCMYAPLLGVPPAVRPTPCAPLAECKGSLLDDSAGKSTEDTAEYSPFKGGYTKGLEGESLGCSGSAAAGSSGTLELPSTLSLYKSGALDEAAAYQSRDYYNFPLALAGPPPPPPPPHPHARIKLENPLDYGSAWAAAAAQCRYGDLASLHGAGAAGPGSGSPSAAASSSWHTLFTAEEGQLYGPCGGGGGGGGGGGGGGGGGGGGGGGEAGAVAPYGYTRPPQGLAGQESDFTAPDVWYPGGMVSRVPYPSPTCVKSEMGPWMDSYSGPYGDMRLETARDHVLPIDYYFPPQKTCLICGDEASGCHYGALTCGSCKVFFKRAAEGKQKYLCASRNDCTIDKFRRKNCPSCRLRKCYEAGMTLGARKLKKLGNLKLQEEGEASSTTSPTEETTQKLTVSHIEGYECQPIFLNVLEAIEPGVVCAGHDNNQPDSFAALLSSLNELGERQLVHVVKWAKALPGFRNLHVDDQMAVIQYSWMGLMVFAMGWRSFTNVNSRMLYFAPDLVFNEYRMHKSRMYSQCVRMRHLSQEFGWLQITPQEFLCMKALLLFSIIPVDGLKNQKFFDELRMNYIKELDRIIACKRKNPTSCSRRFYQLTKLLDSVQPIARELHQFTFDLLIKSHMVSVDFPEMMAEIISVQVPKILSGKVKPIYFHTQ
UniProt Q9NXR8: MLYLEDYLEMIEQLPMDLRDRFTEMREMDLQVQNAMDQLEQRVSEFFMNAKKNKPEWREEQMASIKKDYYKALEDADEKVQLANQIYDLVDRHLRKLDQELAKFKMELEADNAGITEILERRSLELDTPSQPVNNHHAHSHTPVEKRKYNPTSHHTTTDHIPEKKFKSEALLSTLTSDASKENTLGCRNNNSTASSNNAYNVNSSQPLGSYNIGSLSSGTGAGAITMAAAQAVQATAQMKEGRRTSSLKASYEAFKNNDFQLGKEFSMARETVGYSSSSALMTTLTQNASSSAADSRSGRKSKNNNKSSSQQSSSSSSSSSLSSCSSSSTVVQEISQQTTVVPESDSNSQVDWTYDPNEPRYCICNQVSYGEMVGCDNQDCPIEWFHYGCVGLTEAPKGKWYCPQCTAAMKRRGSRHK
UniProt Q92993: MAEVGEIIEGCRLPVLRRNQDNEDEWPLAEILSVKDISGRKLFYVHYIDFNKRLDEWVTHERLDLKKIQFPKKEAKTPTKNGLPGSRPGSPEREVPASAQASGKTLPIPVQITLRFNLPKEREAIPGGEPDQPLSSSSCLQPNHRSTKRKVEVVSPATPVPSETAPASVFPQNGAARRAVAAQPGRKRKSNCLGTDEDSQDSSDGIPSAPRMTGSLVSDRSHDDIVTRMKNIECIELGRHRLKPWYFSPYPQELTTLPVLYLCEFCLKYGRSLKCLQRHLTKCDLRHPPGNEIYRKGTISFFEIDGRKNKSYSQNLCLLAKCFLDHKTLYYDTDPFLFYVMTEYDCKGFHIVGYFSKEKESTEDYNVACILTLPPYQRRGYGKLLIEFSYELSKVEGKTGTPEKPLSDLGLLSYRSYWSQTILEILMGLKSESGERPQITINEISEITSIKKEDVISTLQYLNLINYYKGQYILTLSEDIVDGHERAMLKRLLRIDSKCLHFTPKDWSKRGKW

Results are given in words; binding and its absence hold for the method and conditions named. In cells and extracts the contact can be indirect. Some entries that bind do so weakly or less than the wild type.

In PMC5434536 one finds binding data, which are given here for three substances.

Regarding “HA-tagged TIP60 (pCIN4-FLAG-HA-TIP60) (from UniProt Q92993 1-513) (enzyme)”, the binding result in experiment [1] is “binds”.

Turning to “TIP60, endogenous in HEK293T cells (from UniProt Q92993 1-513) (enzyme)”, the binding entry in experiment [2] was “binds”.

“Myc-tagged androgen receptor (pCMV-3myc-AR) (from UniProt P10275 1-920)”: the binding result is reported as “no binding (condition: in the nuclear fraction (no MB))” in experiment [3], “binds” in experiment [4], “binds” in experiment [2] and “binds” in experiment [5].
